# Experimental data as given in publication PMC8184923.
# Sequences of proteins named here, by UniProt entry; tags and fusion partners are left off.
# UniProt P23771: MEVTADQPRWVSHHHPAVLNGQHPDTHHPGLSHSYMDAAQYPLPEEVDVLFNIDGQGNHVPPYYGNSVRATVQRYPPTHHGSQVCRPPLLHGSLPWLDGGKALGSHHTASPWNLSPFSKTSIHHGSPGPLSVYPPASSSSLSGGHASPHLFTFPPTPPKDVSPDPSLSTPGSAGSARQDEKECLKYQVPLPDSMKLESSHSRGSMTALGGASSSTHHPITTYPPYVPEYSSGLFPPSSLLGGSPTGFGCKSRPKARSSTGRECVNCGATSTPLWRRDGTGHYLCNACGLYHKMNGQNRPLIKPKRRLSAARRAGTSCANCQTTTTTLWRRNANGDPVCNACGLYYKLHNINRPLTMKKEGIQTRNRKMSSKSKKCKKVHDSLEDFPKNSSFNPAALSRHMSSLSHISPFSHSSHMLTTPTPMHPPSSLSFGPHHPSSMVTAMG
# No constants are given. Whether binding was seen depends on the method and setting. Binding seen in cells or lysates may run through a third protein. Some results given as binding are weak or reduced against the parent protein; the word gives no strength.
# Molecular target: GATA binding protein 3 (GATA3) (human (endogenous in primary CD4+ T cells)) (UniProt P23771)
# Assay: co-IP; GATA3 antibody (16E10A23, Biolegend) on Protein G beads, incubated overnight at 4 °C with RIPA lysates of CD4+ T cells with or without hydroxyurea treatment; western blot
row,Binder,binding
1,"nuclear factor erythroid 2-related factor 2 (NRF2) (protein, UniProt Q16236 1-605) MMDLELPPPGLPSQQDMDLIDILWRQDIDLGVSREVFDFSQRRKEYELEKQKKLEKERQEQLQKEQEKAFFAQLQLDEETGEFLPIQPAQHIQSETSGSANYSQVAHIPKSDALYFDDCMQLLAQTFPFVDDNEVSSATFQSLVPDIPGHIESPVFIATNQAQSPETSVAQVAPVDLDGMQQDIEQVWEELLSIPELQCLNIENDKLVETTMVPSPEAKLTEVDNYHFYSSIPSMEKEVGNCSPHFLNAFEDSFSSILSTEDPNQLTVNSLNSDATVNTDFGDEFYSAFIAEPSISNSMPSPATLSHSLSELLNGPIDVSDLSLCKAFNQNHPESTAEFNDSDSGISLNTSPSVASPEHSVESSSYGDTLLGLSDSEVEELDSAPGSVKQNGPKTPVHSSGDMVQPLSPSQGQSTHVHDAQCENTPEKELPVSPGHRKTPFTKDKHSSRLEAHLTRDELRAKALHIPFPVEKIINLPVVDFNEMMSKEQFNEAQLALIRDIRRRGKNKVAAQNCRKRKLENIVELEQDLDHLKDEKEKLLKEKGENDKSLHLLKKQLSTLYLEVFSMLRDEDGKPYSPSEYSLQQTRDGNVFLVPKSKKPDVKKN",binds
2,"SOD3 (protein, UniProt P08294 19-240) WTGEDSAEPNSDSAEWIRDMYAKVTEIWQEVMQRRDDDGALHAACQVQPSATLDAAQPRVTGVVLFRQLAPRAKLDAFFALEGFPTEPNSSSRAIHVHQFGDLSQGCESTGPHYNPLAVPHPQHPGDFGNFAVRDGSLWRYRAGLAASLAGPHSIVGRAVVVHAGEDDLGRGGNQASVENGNAGRRLACCVVGVCGPGLWERQAREHSERKKRRRESECKAA",binds
3,"NRF1 (protein, UniProt Q16656 1-503) MEEHGVTQTEHMATIEAHAVAQQVQQVHVATYTEHSMLSADEDSPSSPEDTSYDDSDILNSTAADEVTAHLAAAGPVGMAAAAAVATGKKRKRPHVFESNPSIRKRQQTRLLRKLRATLDEYTTRVGQQAIVLCISPSKPNPVFKVFGAAPLENVVRKYKSMILEDLESALAEHAPAPQEVNSELPPLTIDGIPVSVDKMTQAQLRAFIPEMLKYSTGRGKPGWGKESCKPIWWPEDIPWANVRSDVRTEEQKQRVSWTQALRTIVKNCYKQHGREDLLYAFEDQQTQTQATATHSIAHLVPSQTVVQTFSNPDGTVSLIQVGTGATVATLADASELPTTVTVAQVNYSAVADGEVEQNWATLQGGEMTIQTTQASEATQAVASLAEAAVAASQEMQQGATVTMALNSEAAAHAVATLAEATLQGGGQIVLSGETAAAVGALTGVQDANGLVQIPVSMYQTVVTSLAQGNGPVQVAMAPVTTRISDSAVTMDGQAVEVVTLEQ",no binding
